Taken from: PubChem BioAssay AID1224828 (NIAID, 2016)
The deposit covers about 17,000 reagents; below is an unselected part. 762 of them (4.5%) count as active. 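Active calls include both raised and lowered p65 entry, mostly lowered; wells with fewer than 50 cells lack a z-score.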 The raw values are shown without normalisation. Reagents against one gene are numbered here. Reagent sequences are not shown.

- Screen: 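Find genes required for NF-kappaB p65 moving into the nucleus after LPS in mouse macrophages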 (primary screen)
- System: mouse RAW264.7 G9 macrophage reporter cells (GFP-p65, Tnf promoter-mCherry)
- Reagent: siRNA pool against mouse genes, 100 nM
- Duration: 2 days siRNA transfection, then 40 min LPS before fixation
- Treatment: LPS (Salmonella minnesota R595) at 10 ng/ml
- Measured: 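Imaged p65 nuclear translocation ratio, normalised to the plate median, converted to robust z-scores and averaged across two replicates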
- Reading the numbers: p65 translocation robust z-score: higher = more nuclear NF-kappaB p65 after LPS than the plate median; nuclear/cytoplasmic p65 ratio: higher = more nuclear NF-kappaB p65
- Hit rule: 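Active if robust z is above 3.3 (negative regulators) or below -1.56, the Tlr4 control median (positive regulators); activity score 50 or more; control wells not called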
- Calls: active = hit (p65 shift raised or lowered); inactive = no clear change

gene	pool no.	p65 translocation robust z-score	nuclear/cytoplasmic p65 ratio, rep 1	nuclear/cytoplasmic p65 ratio, rep 2	low cell count flag	call
Agtpbp1	1	-0.44	1.5	1.66	enough cells to score	inactive
Or1e26	1	1.02	1.73	1.59	enough cells to score	inactive
Ess2	1	0.63	1.66	1.57	enough cells to score	inactive
Gdf6	1	-0.75	1.43	1.41	enough cells to score	inactive
Pcca	1	-0.25	1.52	1.28	enough cells to score	inactive
Rrm2	1		1.11	1.45	fewer than 50 cells per well; well left out of scoring	inactive
Gab1	1	-2.05	1.11	1.16	enough cells to score	active
Dlgap5	1	0.79	1.63	1.44	enough cells to score	inactive
Uros	1	-1.36	1.29	1.34	enough cells to score	inactive
Rpn1	1		1.68	1.25	fewer than 50 cells per well; well left out of scoring	inactive
Adam23	1	-0.29	1.55	1.6	enough cells to score	inactive
Adam23	2	0.95	1.53	1.86	enough cells to score	inactive
Tmem108	1	-0.36	1.44	1.57	enough cells to score	inactive
Zfp467	1	0.92	1.5	1.39	enough cells to score	inactive
Cant1	1	-0.23	1.44	1.33	enough cells to score	inactive
Git1	1	-0.39	1.65	1.3	enough cells to score	inactive
Vmn1r49	1	1.12	1.5	1.38	enough cells to score	inactive
Mettl1	1	0.05	1.69	1.58	enough cells to score	inactive
Zfp689	1	-0.41	1.37	1.35	enough cells to score	inactive
Kcnk13	1	-0.69	1.37	1.31	enough cells to score	inactive
Rapgef3	1	0.87	1.87	1.45	enough cells to score	inactive
Anapc13	1	-0.97	1.46	1.53	enough cells to score	inactive
Kctd11	1	-0.91	1.51	1.23	enough cells to score	inactive
Atp5pd	1	0.05	1.63	1.62	enough cells to score	inactive
Dpcd	1	0.98	1.5	1.58	enough cells to score	inactive
Cpb2	1	-0.56	1.37	1.34	enough cells to score	inactive
Mindy4	1	0.64	1.63	1.49	enough cells to score	inactive
Rhbdf2	1	0.01	1.62	1.61	enough cells to score	inactive
Vmn1r66	1	1.39	1.53	1.41	enough cells to score	inactive
Runx3	1	1.3	1.73	1.67	enough cells to score	inactive
Fsip1	1	1.77	1.83	1.73	enough cells to score	inactive
Tbl1xr1	1		1.24	1.25	fewer than 50 cells per well; well left out of scoring	inactive
Micall2	1	0.89	1.55	1.6	enough cells to score	inactive
Bad	1	0.63	1.74	1.68	enough cells to score	inactive
Rundc1	1	-1.15	1.42	1.36	enough cells to score	inactive
Or10n1	1	0.92	1.75	1.56	enough cells to score	inactive
Klk1b5	1	1.72	1.76	1.69	enough cells to score	inactive
Or8c8	1	0.1	1.62	1.44	enough cells to score	inactive
Satb1	1	-0.59	1.27	1.21	enough cells to score	inactive
Nit2	1	-0.24	1.38	1.38	enough cells to score	inactive
Pllp	1	-0.61	1.26	1.15	enough cells to score	inactive
Cnbp	1	-0.18	1.34	1.36	enough cells to score	inactive
Il4i1	1	0.44	1.61	1.53	enough cells to score	inactive
Pabpc4	1		1.43	1.26	fewer than 50 cells per well; well left out of scoring	inactive
Serpinb9c	1		1.41	1.21	fewer than 50 cells per well; well left out of scoring	inactive
Nmt1	1	0.91	1.95	1.58	enough cells to score	inactive
Psen2	1	-0.69	1.49	1.24	enough cells to score	inactive
Ipo5	1	1.12	1.58	1.57	enough cells to score	inactive
Vldlr	1	0.11	1.51	1.53	enough cells to score	inactive
Hrg	1	-0.45	1.37	1.33	enough cells to score	inactive
1700028K03Rik	1	0.12	1.41	1.31	enough cells to score	inactive
Fen1	1	-0.76	1.41	1.23	enough cells to score	inactive
Cmc2	1	0.03	1.59	1.64	enough cells to score	inactive
Sall4	1	1.64	1.8	1.7	enough cells to score	inactive
Phyhip	1	-0.67	1.32	1.17	enough cells to score	inactive
Slc16a7	1	0.43	1.54	1.31	enough cells to score	inactive
Gdap2	1	0.16	1.54	1.55	enough cells to score	inactive
Galnt11	1	-0.62	1.56	1.33	enough cells to score	inactive
Cd37	1	-0.47	1.38	1.33	enough cells to score	inactive
Slc38a5	1	-0.19	1.53	1.79	enough cells to score	inactive
Mov10	1	1.23	2.04	1.73	enough cells to score	inactive
Slc35e1	1	-0.09	1.29	1.51	enough cells to score	inactive
Trim26	1	0.14	1.6	1.46	enough cells to score	inactive
Iws1	1	1.23	1.74	1.4	enough cells to score	inactive
Inpp1	1	0.32	1.49	1.45	enough cells to score	inactive
Pld3	1	-0.74	1.23	1.18	enough cells to score	inactive
Ssxb13	1	0.74	1.52	1.05	enough cells to score	inactive
Or6c69c	1		1.64	1.45	fewer than 50 cells per well; well left out of scoring	inactive
D630039A03Rik	1	-1.8	1.22	1.38	enough cells to score	active
Def8	1	-1.43	1.3	1.41	enough cells to score	inactive
Sema3b	1	1.17	1.57	1.38	enough cells to score	inactive
Foxl2	1	0.35	1.46	1.43	enough cells to score	inactive
Tafa1	1	0.66	1.55	1.58	enough cells to score	inactive
Acsm3	1		1.8	1.66	fewer than 50 cells per well; well left out of scoring	inactive
Or5d38	1	-0.37	1.63	1.5	enough cells to score	inactive

Records listed above called active, once more:
gene	pool no.	p65 translocation robust z-score	nuclear/cytoplasmic p65 ratio, rep 1	nuclear/cytoplasmic p65 ratio, rep 2	low cell count flag	call
Gab1	1	-2.05	1.11	1.16	enough cells to score	active
D630039A03Rik	1	-1.8	1.22	1.38	enough cells to score	active
